# Assay results reported in the supplement of paper PMC8728848.
# The list shows a part of the results.
# B1: Flo1 (Saccharomyces cerevisiae), P32768 (protein)
# chain: SGATEACLPAGQRKSGMNINFYQYSLKDSSTYSNAAYMAYGYASKTKLGSVGGQTDISIDYNIPCVSSSGTFPCPQEDSYGNWGCKGMGACSNSQGIAYWSTDLFGFYTTPTNVTLEMTGYFLPPQTGSYTFKFATVDDSAILSVGGATAFNCCAQQQPPITSTNFTIDGIKPWGGSLPPNIEGTVYMYAGYYYPMKVVYSNAVSWGTLPISVTLPDGTTVSDDFEGYVYSFDDDLSQSNCTVPDPSNY
# How the values were obtained:
# Assay in all cases: glycan array binding signal (z-score within array); higher = stronger binding
# Conditions in all cases: glycan notation: IUPAC condensed, linker removed
# Fuc(a1-2)Gal = target: Fuc(a1-2)Gal
# Outline: (§1)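 The binding signal is a Z-score computed within each array. Data were drawn from 3228 arrays in the Consortium for Functional Glycomics database, restricted to those with a known protein sequence. Scores were averaged over arrays of the same protein sequence at different concentrations or buffers, and over linkers, and negative values can be taken as non-binding.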
# Fuc(a1-2)Gal(b1-3)GalNAc = target: Fuc(a1-2)Gal(b1-3)GalNAc
# Outline: as §1
# [1] = target: Fuc(a1-2)Gal(b1-3)GalNAc(a1-3)[Fuc(a1-2)]Gal(b1-4)Glc
# Outline: as §1
# [2] = target: Fuc(a1-2)Gal(b1-3)GalNAc(a1-3)[Fuc(a1-2)]Gal(b1-4)GlcNAc
# Outline: as §1
# [3] = target: Fuc(a1-2)Gal(b1-3)GalNAc(b1-3)Gal
# Outline: as §1
# [4] = target: Fuc(a1-2)Gal(b1-3)GalNAc(b1-3)Gal(a1-4)Gal(b1-4)Glc
# Outline: as §1
# [5] = target: Fuc(a1-2)Gal(b1-3)GalNAc(b1-4)[Neu5Ac(a2-3)]Gal(b1-4)Glc
# Outline: as §1
# Fuc(a1-2)Gal(b1-3)GlcNAc = target: Fuc(a1-2)Gal(b1-3)GlcNAc
# Outline: as §1
# [6] = target: Fuc(a1-2)Gal(b1-3)GlcNAc(b1-2)Man(a1-3)[Fuc(a1-2)Gal(b1-3)GlcNAc(b1-2)Man(a1-6)]Man(b1-4)GlcNAc(b1-4)GlcNAc
# Outline: as §1
# [7] = target: Fuc(a1-2)Gal(b1-3)GlcNAc(b1-2)Man(a1-3)[Fuc(a1-2)Gal(b1-3)GlcNAc(b1-2)Man(a1-6)]Man(b1-4)GlcNAc(b1-4)[Fuc(a1-6)]GlcNAc
# Outline: as §1
# [8] = target: Fuc(a1-2)Gal(b1-3)GlcNAc(b1-3)Gal(b1-4)Glc
# Outline: as §1
# [9] = target: Fuc(a1-2)Gal(b1-3)GlcNAc(b1-3)GalNAc
# Outline: as §1
# [10] = target: Fuc(a1-2)Gal(b1-3)GlcNAc(b1-3)[Fuc(a1-2)Gal(b1-3)GlcNAc(b1-6)]GalNAc
# Outline: as §1
# [11] = target: Fuc(a1-2)Gal(b1-3)GlcNAc(b1-3)[Fuc(a1-3)[Gal(b1-4)]GlcNAc(b1-6)]Gal(b1-4)Glc
# Outline: as §1
# [12] = target: Fuc(a1-2)Gal(b1-3)GlcNAc(b1-3)[Gal(b1-4)GlcNAc(b1-6)]Gal(b1-4)Glc
# Outline: as §1
# [13] = target: Fuc(a1-2)Gal(b1-3)GlcNAc(b1-3)[Neu5Ac(a2-6)Gal(b1-4)GlcNAc(b1-6)]Gal(b1-4)Glc
# Outline: as §1
# [14] = target: Fuc(a1-2)Gal(b1-3)GlcNAc6S
# Outline: as §1
# [15] = target: Fuc(a1-2)Gal(b1-3)[Fuc(a1-4)]GlcNAc
# Outline: as §1
# [16] = target: Fuc(a1-2)Gal(b1-3)[Fuc(a1-4)]GlcNAc(b1-2)Man(a1-3)[Fuc(a1-2)Gal(b1-3)[Fuc(a1-4)]GlcNAc(b1-2)Man(a1-3)]Man(b1-4)GlcNAc(b1-4)GlcNAc
# Outline: as §1
# [17] = target: Fuc(a1-2)Gal(b1-3)[Fuc(a1-4)]GlcNAc(b1-2)Man(a1-3)[Fuc(a1-2)Gal(b1-3)[Fuc(a1-4)]GlcNAc(b1-2)Man(a1-6)]Man(b1-4)GlcNAc(b1-4)GlcNAc
# Outline: as §1
# [18] = target: Fuc(a1-2)Gal(b1-3)[Fuc(a1-4)]GlcNAc(b1-2)Man(a1-3)[Fuc(a1-2)Gal(b1-3)[Fuc(a1-4)]GlcNAc(b1-2)Man(a1-6)]Man(b1-4)GlcNAc(b1-4)[Fuc(a1-6)]GlcNAc(b1-4)[Fuc(a1-6)]GlcNAc
# Outline: as §1
# [19] = target: Fuc(a1-2)Gal(b1-3)[Fuc(a1-4)]GlcNAc(b1-3)[Fuc(a1-3)[Gal(b1-4)]GlcNAc(b1-6)]Gal(b1-4)Glc
# Outline: as §1
# [20] = target: Fuc(a1-2)Gal(b1-3)[Fuc(a1-4)]GlcNAc(b1-3)[Gal(b1-4)GlcNAc(b1-6)]Gal(b1-4)Glc
# Outline: as §1
# [21] = target: Fuc(a1-2)Gal(b1-4)Fuc(a1-3)]GlcNAc(b1-2)Man(a1-3)[Fuc(a1-2)Gal(b1-4)[Fuc(a1-3)]GlcNAc(b1-2)Man(a1-6)]Man(b1-4)GlcNAc(b1-4)GlcNAc
# Outline: as §1
# Fuc(a1-2)Gal(b1-4)Glc = target: Fuc(a1-2)Gal(b1-4)Glc
# Outline: as §1
# Fuc(a1-2)Gal(b1-4)Glc6S = target: Fuc(a1-2)Gal(b1-4)Glc6S
# Outline: as §1
# Fuc(a1-2)Gal(b1-4)GlcNAc = target: Fuc(a1-2)Gal(b1-4)GlcNAc
# Outline: as §1
# [22] = target: Fuc(a1-2)Gal(b1-4)GlcNAc(b1-2)Man
# Outline: as §1
# [23] = target: Fuc(a1-2)Gal(b1-4)GlcNAc(b1-2)Man(a1-3)[Fuc(a1-2)Gal(b1-4)GlcNAc(b1-2)Man(a1-6)]Man(b1-4)GlcNAc(b1-4)GlcNAc
# Outline: as §1
# [24] = target: Fuc(a1-2)Gal(b1-4)GlcNAc(b1-2)Man(a1-3)[Fuc(a1-2)Gal(b1-4)GlcNAc(b1-2)Man(a1-6)]Man(b1-4)GlcNAc(b1-4)[Fuc(a1-6)]GlcNAc
# Outline: as §1
# [25] = target: Fuc(a1-2)Gal(b1-4)GlcNAc(b1-2)[Fuc(a1-2)Gal(b1-4)GlcNAc(b1-4)]Man(a1-3)[Fuc(a1-2)Gal(b1-4)GlcNAc(b1-2)Man(a1-6)]Man(b1-4)GlcNAc(b1-4)GlcNAc
# Outline: as §1
# [26] = target: Fuc(a1-2)Gal(b1-4)GlcNAc(b1-3)Gal(b1-4)GlcNAc
# Outline: as §1
# [27] = target: Fuc(a1-2)Gal(b1-4)GlcNAc(b1-3)Gal(b1-4)GlcNAc(b1-2)Man(a1-3)[Fuc(a1-2)Gal(b1-4)GlcNAc(b1-3)Gal(b1-4)GlcNAc(b1-2)Man(a1-6)]Man(b1-4)GlcNAc(b1-4)GlcNAc
# Outline: as §1
# [28] = target: Fuc(a1-2)Gal(b1-4)GlcNAc(b1-3)Gal(b1-4)GlcNAc(b1-3)Gal(b1-4)GlcNAc
# Outline: as §1
# [29] = target: Fuc(a1-2)Gal(b1-4)GlcNAc(b1-3)GalNAc
# Outline: as §1
# [30] = target: Fuc(a1-2)Gal(b1-4)GlcNAc(b1-3)[Fuc(a1-2)Gal(b1-4)GlcNAc(b1-6)]GalNAc
# Outline: as §1
# [31] = target: Fuc(a1-2)Gal(b1-4)GlcNAc(b1-3)[Fuc(a1-3)[Gal(b1-4)]GlcNAc(b1-6)]Gal(b1-4)Glc
# Outline: as §1
# [32] = target: Fuc(a1-2)Gal(b1-4)GlcNAc(b1-6)GalNAc
# Outline: as §1
# [33] = target: Fuc(a1-2)Gal(b1-4)GlcNAc6S
# Outline: as §1
# [34] = target: Fuc(a1-2)Gal(b1-4)[Fuc(a1-3)]GlcNAc
# Outline: as §1
# [35] = target: Fuc(a1-2)Gal(b1-4)[Fuc(a1-3)]GlcNAc(b1-2)Man(a1-3)[Fuc(a1-2)Gal(b1-4)[Fuc(a1-3)]GlcNAc(b1-2)Man(a1-6)]Man(b1-4)GlcNAc(b1-4)GlcNAc
# Outline: as §1
# [36] = target: Fuc(a1-2)Gal(b1-4)[Fuc(a1-3)]GlcNAc(b1-2)Man(a1-3)[Fuc(a1-2)Gal(b1-4)[Fuc(a1-3)]GlcNAc(b1-2)Man(a1-6)]Man(b1-4)GlcNAc(b1-4)[Fuc(a1-6)]GlcNAc
# Outline: as §1
# [37] = target: Fuc(a1-2)Gal(b1-4)[Fuc(a1-3)]GlcNAc(b1-2)[Fuc(a1-2)Gal(b1-4)[Fuc(a1-3)]GlcNAc(b1-4)]Man(a1-3)[Fuc(a1-2)Gal(b1-4)[Fuc(a1-3)]GlcNAc(b1-2)Man(a1-6)]Man(b1-4)GlcNAc(b1-4)GlcNAc
# Outline: as §1
# [38] = target: Fuc(a1-2)Gal(b1-4)[Fuc(a1-3)]GlcNAc(b1-3)Gal(b1-4)[Fuc(a1-3)]GlcNAc
# Outline: as §1
# [39] = target: Fuc(a1-2)Gal(b1-4)[Fuc(a1-3)]GlcNAc(b1-3)Gal(b1-4)[Fuc(a1-3)]GlcNAc(b1-3)Gal(b1-4)[Fuc(a1-3)]GlcNAc
# Outline: as §1
binder,measurement,setting,value
B1,glycan array binding signal (z-score),Fuc(a1-2)Gal,-0.113
same,glycan array binding signal (z-score),Fuc(a1-2)Gal(b1-3)GalNAc,-0.086
same,glycan array binding signal (z-score),[1],0.168
same,glycan array binding signal (z-score),[2],0.193
same,glycan array binding signal (z-score),[3],-0.369
same,glycan array binding signal (z-score),[4],-0.43
same,glycan array binding signal (z-score),[5],-0.19
same,glycan array binding signal (z-score),Fuc(a1-2)Gal(b1-3)GlcNAc,-0.431
same,glycan array binding signal (z-score),[6],1.8
same,glycan array binding signal (z-score),[7],1.41
same,glycan array binding signal (z-score),[8],-0.007
same,glycan array binding signal (z-score),[9],-0.104
same,glycan array binding signal (z-score),[10],-0.277
same,glycan array binding signal (z-score),[11],-0.653
same,glycan array binding signal (z-score),[12],-0.127
same,glycan array binding signal (z-score),[13],0.477
same,glycan array binding signal (z-score),[14],0.055
same,glycan array binding signal (z-score),[15],-0.416
same,glycan array binding signal (z-score),[16],-0.362
same,glycan array binding signal (z-score),[17],2.44
same,glycan array binding signal (z-score),[18],0.133
same,glycan array binding signal (z-score),[19],-0.102
same,glycan array binding signal (z-score),[20],0.802
same,glycan array binding signal (z-score),[21],3.01
same,glycan array binding signal (z-score),Fuc(a1-2)Gal(b1-4)Glc,-0.432
same,glycan array binding signal (z-score),Fuc(a1-2)Gal(b1-4)Glc6S,-0.12
same,glycan array binding signal (z-score),Fuc(a1-2)Gal(b1-4)GlcNAc,-0.151
same,glycan array binding signal (z-score),[22],-0.317
same,glycan array binding signal (z-score),[23],1.06
same,glycan array binding signal (z-score),[24],-0.383
same,glycan array binding signal (z-score),[25],0.883
same,glycan array binding signal (z-score),[26],-0.511
same,glycan array binding signal (z-score),[27],-0.477
same,glycan array binding signal (z-score),[28],-0.084
same,glycan array binding signal (z-score),[29],0.478
same,glycan array binding signal (z-score),[30],-0.167
same,glycan array binding signal (z-score),[31],0.001
same,glycan array binding signal (z-score),[32],0.315
same,glycan array binding signal (z-score),[33],-0.166
same,glycan array binding signal (z-score),[34],-0.115
same,glycan array binding signal (z-score),[35],2.48
same,glycan array binding signal (z-score),[36],0.045
same,glycan array binding signal (z-score),[37],1.04
same,glycan array binding signal (z-score),[38],0.346
same,glycan array binding signal (z-score),[39],0.144

# Retrieved one by one from the list above:
binder,measurement,setting,value
B1,glycan array binding signal (z-score),[24],-0.383
same,glycan array binding signal (z-score),[34],-0.115
